Test results from paper PMC10163288.
The other results are listed elsewhere or left out.

B1: il10ra_site1_normal_mot_HHH_b2_07442_000000239_0001_40_54_H_._HHH_b2_05222_af2_0001_0000400026_0000002_0 (protein)
chain: SSSSSDESRRVYELLRRAAEADHEGDKEKAEEILEEAEELAEEGNNEVLAFVVEFLLRLVSSSSS
B2: il10ra_site1_normal_mot_HHH_b1_03031_af2_000000117_0001_17_33_H_._HHH_b1_04005_af2_0001_0001200026_0000002_0_af2pred_0001 (protein)
chain: SSSSSDEEERKRAAELLWLAARLGDEELVHRLLELAARYLLEGDPRYVEEMEQLVEEVEKSSSSS
B3: il10ra_site1_normal_mot_b26a303360aa2756ef5b79665ce52f45_0001_000000179_0001_1_11_H_._HHH_b2_05702_af2_0001_0000300024_0000001_1_af2pred_0001 (protein)
chain: SSSSSSESEEIFRLIREAAELAFRGDPRAEEVAEEALELAEEAGNLVARFAIEHLLRDLTSSSSS
B4: il10ra_site1_normal_mot_HHH_b1_03262_af2_000000181_0001_43_57_H_._HHH_b1_05284_0001_0000100004_0000001_0 (protein)
chain: SSSSSSEERAREAARFLLEAAKQIEDPEYVREALRFALHLARFANDEELEEEIERLLEEYSSSSS
B5: il10ra_site1_normal_mot_HHH_b1_05357_000000034_0001_23_39_H_._HHH_b2_02453_0001_0000500021_0000001_0_af2pred_0001 (protein)
chain: SSSSDVEEELEELLEEAKRIEDLDRAAYVLIRAFALATQRRDPELEEFVEEVAKEISEEGSSSSS
B6: il10ra_site1_normal_mot_8756ee2cf497b5429c717dfc0c0bcfd6_0001_000000186_0001_1_13_H_._HHH_b2_04715_af2_0001_0000800036_0000001_0 (protein)
chain: SSSSSDLEELFELLRRIAELLHEGDEEEAEELIERVKELAKELNNDVARFQAEYLERSLNSSSSS
B7: il10ra_site1_normal_mot_HHH_b1_02062_000000185_0001_1_20_H_._HHH_b1_08647_0001_0000200022_0000001_0_af2pred_0001 (protein)
chain: SSSSDLIERVKELLEEAIELLRRGNPEEAEKLLEEAEELVREAGDQNTLAVIRFLLERLKSSSSS
B8: il10ra_site1_sap_16_mot_HHH_b2_00984_000000042_0001_1_20_H_._HHH_b1_04080_0001_0000500059_0000001_0_0001 (protein)
chain: SSSSDLSQEIYEALKELIELVSENDDERFEELVEEIERLIEEAKSQLMEFVLRIIRRDFHSSSSS
B9: il10ra_site1_sap_17_mot_HHH_b2_01310_000000089_0001_41_55_H_._HHH_b1_06780_af2_0001_0000200021_0000001_0_0001 (protein)
chain: SSSSDEEKLEIIREAVENLFEQAEEKNSELARILIRQALKAAKLLGDPELAEEIEELLKQLSSSS
B10: il10ra_site1_sap_22_mot_HHH_b1_07097_af2_000000269_0001_1_16_H_._HHH_b2_07321_af2_0001_0000200007_0000001_0_0001_af2pred_dldesign_0_af2pred (protein)
chain: SSSSAEAEALFEETKKELERLLAAGKYQEAYDLLKEAIEELIAMGAPELARELANYFLELASSSS
B11: il10ra_site1_normal_mot_HHH_b1_01821_000000158_0001_23_39_H_._HHH_b2_07952_0001_0000600024_0000001_0 (protein)
chain: SSSSSDEEEREEIEELLEEAEKIEDPRRRNELLLEALRIALHAQNAELLQEIWEVFKELSSSSSS
B12: il10ra_site1_sap_16_mot_HHH_b1_01307_000000115_0001_1_18_H_._HHH_b1_03429_0001_0000400030_0000001_0_0001_af2pred_0001 (protein)
chain: SSSSSSREELIRRVAELLAEAARVSDEEEVEKLLEEARRLAEEANNPALEWLVRAAEERNSSSSS
B13: il10ra_site1_sap_23_mot_HHH_b2_00441_000000147_0001_1_18_H_._HHH_b1_03163_0001_0000200008_0000001_0_0001 (protein)
chain: SKLEEVEELLEELAKRDVVAISLLHALRADKEAGVPPEEILEFLKEVARRANSPFARELLKLLEK
B14: il10ra_site1_normal_mot_HHH_b2_03220_af2_000000223_0001_23_40_H_._HHH_b2_04558_af2_0001_0001000054_0000001_0 (protein)
chain: SSSSSSDNEEIWKLLREALHIPDPEEARKLVEEALELAEELGNELLAIQARFLERALGSSSSSSS
B15: il10ra_site1_sap_25_mot_HHH_b1_05937_af2_000000262_0001_20_37_H_._HHH_b2_06195_af2_0001_0000800017_0000001_0_0001 (protein)
chain: SSSSSDEEVEERVEELLERLHKVDPQEAYELLREAIELAAENNDPELQREIMRALREWMHSSSSS
B16: il10ra_site1_normal_mot_HHH_b2_08144_af2_000000046_0001_38_52_H_._HHH_b1_01529_af2_0001_0000300029_0000001_0 (protein)
chain: SSSSDEELRRVYELIREAARLHHEGNPEEARKVLEEAEELAEEANNELLLFQVEFMLRAVNSSSS
B17: il10ra_site1_normal_mot_8756ee2cf497b5429c717dfc0c0bcfd6_0001_000000186_0001_1_13_H_._HHH_b1_05005_af2_0001_0000100006_0000001_0 (protein)
chain: SSSDEAQRIVELIRLVVELLREGNKEEAEEVLEEAQELAEELGNDVFRVQLEYLRKLLERESSSS
B18: il10ra_site1_sap_20_mot_HHH_b1_07286_af2_000000054_0001_1_19_H_._HHH_b2_02170_af2_0001_0000300005_0000001_0_0001 (protein)
chain: SSSSDEEQQELNELVLRAFRLALRGNPEEARELLEEAEELAREVGDERMLKIVEDMLRSISSSSS
B19: il10ra_site1_sap_23_mot_HHH_b2_01705_af2_000000069_0001_44_57_H_._HHH_b1_00774_0001_0000100006_0000002_0_0001 (protein)
chain: SSSSDAAEFLVEQAIRAAELLIKAGDPEEARRAIEIAERTVERLGNEELLRKLEEVEEELNSSSS
B20: il10ra_site1_normal_mot_HHH_b1_00999_000000080_0001_41_55_H_._HHH_b2_04713_0001_0000400032_0000001_0 (protein)
chain: SSSSDEEEEEVKKLLERAEELYENGNPQEAIEVLLRALRLIFELQDPELLRELWKLVKEIGSSSS
B21: il10ra_site1_sap_21_mot_HHH_b2_08004_000000101_0001_1_17_H_._HHH_b1_06586_af2_0001_0002500045_0000001_0_0001 (protein)
chain: SSSSDVEEEVERLLEEAEELARRGNPEEAAELLREAVQFALRANDPELLQEVWEVVRRVAGSSSS
B22: il10ra_site1_normal_mot_HHH_b2_07245_000000008_0001_1_20_H_._HHH_b1_04343_af2_0001_0000300016_0000001_0 (protein)
chain: SSSDREVIHRALEVAREALRLAFRLSDRETLEELWKLVKEIAEKGDPELLEELEELLEELRSSSS
B23: il10ra_site1_normal_mot_HHH_b2_03038_000000109_0001_1_20_H_._HHH_b2_06173_0001_0000600025_0000002_0 (protein)
chain: SSSSEEAYEISRKANEEAVELEEEGDPEKAEEVVEEALERVERLNNFSAFFALEHLLRLIRSSSS
B24: il10ra_site1_normal_mot_HHH_b1_03859_af2_000000004_0001_44_57_H_._HHH_b2_05934_af2_0001_0000200016_0000001_0_af2pred_dldesign_0_af2pred (protein)
chain: SSSSSSPKAAAESALAATEYLKKLNDKENFEKAYNYAVALAKALGDEETLKKLEELKAELSSSSS
B25: il10ra_site1_normal_mot_8756ee2cf497b5429c717dfc0c0bcfd6_0001_000000186_0001_1_13_H_._HHH_b1_04220_0001_0000100017_0000001_0 (protein)
chain: SSSSDEEVERIIELIREIAELEREGDDEEARELLEEAKRLAEEINNDVLLWQIEYLARQVESSSS
B26: il10ra_site1_normal_mot_HHH_b2_03764_000000138_0001_1_20_H_._HHH_b2_04981_0001_0000100005_0000002_0 (protein)
chain: SSSSDEEFEEVYRLLERASELDQEGDKEKAEELVEEAIELAREGGNEVLTWSAEYLLRMIRSSSS
B27: il10ra_site1_sap_18_mot_HHH_b1_01975_000000257_0001_1_17_H_._HHH_b1_07669_af2_0001_0000400016_0000002_0_0001 (protein)
chain: SSSSSAVERSLKHMLKAAKELLERGDPEAAEIALHFAAALAEATNDHELLEEIRELLEEVTSSSS
B28: il10ra_site1_sap_18_mot_HHH_b2_00033_000000036_0001_41_54_H_._HHH_b1_02211_0001_0000500019_0000001_0_0001 (protein)
chain: SSSSSEEKEELEELLERIEEAAREGDEELVVRLTLEASRLALRSGDQELLREIWELFRRLLSSSS
B29: il10ra_site1_normal_mot_HHH_b2_02337_000000026_0001_38_52_H_._HHH_b2_00311_0001_0000300022_0000001_0 (protein)
chain: SSSSSSDLEELLEELEQLLEEGDEERFLQVAQEIVRHAIRNNDPEVLRAVWELVQRLASSSSSSS
B30: il10ra_site1_normal_mot_HHH_b1_04940_000000219_0001_1_18_H_._HHH_b2_04099_0001_0000100003_0000002_0_af2pred_0001 (protein)
chain: SSSSSSSEEHVRRLLEAAKSLEDPELVELALRLARQLAERLNDDELQRLVEEVEEELKSSSSSSS
B31: il10ra_site1_sap_16_mot_1cde5897893f3d1588f92be3b001cdf2_0001_af2_000000130_0001_54_65_H_._HHH_b2_02704_0001_0000100006_0000001_0_0001 (protein)
chain: SSSSDEDEERVEELLEEAKELAEEGDPEEASQVLLEALKIAWESNNPELLQLVFEVVKRLGSSSS
B32: il10ra_site1_sap_23_mot_HHH_b1_08411_af2_000000053_0001_1_20_H_._HHH_b2_00546_af2_0001_0001000010_0000001_0_0001 (protein)
chain: SSSSSDEEREEAEELLEEAKHIDDERERVELLARALEIATKLRDKELARKVDRVAIELYWSSSSS
B33: il10ra_site1_sap_13_mot_HHH_b1_06789_af2_000000041_0001_1_20_H_._HHH_b2_02303_af2_0001_0000100003_0000001_0_0001 (protein)
chain: SSSSSSDEEEVEELLEELKQITDEEEFSELALEILRLIVEIGDAELLRELWRIIVETISSSSSSS
B34: il10ra_site1_sap_21_mot_HHH_b2_02736_000000092_0001_22_38_H_._HHH_b2_06050_af2_0001_0001100057_0000001_0_0001 (protein)
chain: SSSSDQEEELAEALVRIIRQALEMGDKERARMMLLSLEMLAEDLNDPELRELREELEELLNSSSS
B35: il10ra_site1_sap_24_mot_HHH_b1_07463_af2_000000297_0001_37_56_H_._HHH_b2_07128_af2_0001_0000200014_0000001_0_0001 (protein)
chain: SSSSSEEAEELYRLLREVARLDHDGDPEEARRLVEEALELAEELNDPIFARQFEFLLRLINSSSS
B36: il10ra_site1_normal_mot_HHH_b1_06363_000000103_0001_21_38_H_._HHH_b1_08068_af2_0001_0000400007_0000001_0 (protein)
chain: SSSSSDEEEEVKELLEEAEKIEDHEEAWQVLVEAYFLADQLRDPELRELVTEVARRLAGSSSSSS
B37: il10ra_site1_normal_mot_HHH_b2_03220_af2_000000223_0001_23_40_H_._HHH_b1_05632_af2_0001_0000200012_0000001_0 (protein)
chain: SSSNEAERVWRLAREALELLAHGDHEEAEELVREAIELAEEANSRVLEFNLRQLLRQIERLSSSS

These binders were tested against il10ra, Q13651 (assay: yeast display titration).

Apparent Kd, inactive:
B1 no binding seen, B2 no binding seen, B3 no binding seen, B4 no binding seen, B5 no binding seen, B6 no binding seen, B7 no binding seen, B8 > 711 nM, B9 no binding seen, B10 no binding seen, B11 no binding seen, B12 no binding seen, B13 no binding seen, B14 no binding seen, B15 no binding seen, B16 no binding seen, B17 no binding seen, B18 no binding seen, B19 no binding seen, B20 no binding seen, B21 no binding seen, B22 > 998 nM, B23 no binding seen, B24 no binding seen, B25 no binding seen, B26 no binding seen, B27 no binding seen, B28 no binding seen, B29 no binding seen, B30 no binding seen, B31 no binding seen, B32 no binding seen, B33 no binding seen, B34 no binding seen, B35 no binding seen, B36 no binding seen, B37 no binding seen
